# According to paper PMC7353009, “Identification of Substrates of Cytoplasmic Peptidyl-Prolyl Cis/Trans Isomerases and Their Collective Essentiality in Escherichia Coli” (International Journal of Molecular Sciences, 2020):
# Positions count from the first letter of the chain named. These are yes or no findings as the source states them, for the method shown. Binding seen in cells or lysates may run through a third protein. A yes stands for co-enrichment or nearness to the bait. Other partners may have been found. For some assays here: No binding means not detected with the bait. For some assays here: Sequences can lack the tags named with a protein.
# B1: RNA chaperone ProQ (protein, UniProt P45577 1-232)
# chain: MENQPKLNSSKEVIAFLAERFPHCFSAEGEARPLKIGIFQDLVDRVAGEMNLSKTQLRSALRLYTSSWRYLYGVKPGATRVDLDGNPCGELDEQHVEHARKQLEEAKARVQAQRAEQQAKKREAAATAGEKEDAPRRERKPRPTTPRRKEGAERKPRAQKPVEKAPKTVKAPREEQHTPVSDISALTVGQALKVKAGQNAMDATVLEITKDGVRVQLNSGMSLIVRAEHLVF
# B2: RpoE (envelope stress response regulator sigma E) (protein, UniProt P0AGB6 1-191)
# chain: MSEQLTDQVLVERVQKGDQKAFNLLVVRYQHKVASLVSRYVPSGDVPDVVQEAFIKAYRALDSFRGDSAFYTWLYRIAVNTAKNYLVAQGRRPPSSDVDAIEAENFESGGALKEISNPENLMLSEELRQIVFRTIESLPEDLRMAITLRELDGLSYEEIAAIMDCPVGTVRSRIFRAREAIDNKVQPLIRR
# B3: LptB (cytoplasmic ATPase component of LPS ABC transport complex) (protein, UniProt P0A9V1 1-241)
# chain: MATLTAKNLAKAYKGRRVVEDVSLTVNSGEIVGLLGPNGAGKTTTFYMVVGIVPRDAGNIIIDDDDISLLPLHARARRGIGYLPQEASIFRRLSVYDNLMAVLQIRDDLSAEQREDRANELMEEFHIEHLRDSMGQSLSGGERRRVEIARALAANPKFILLDEPFAGVDPISVIDIKRIIEHLRDSGLGVLITDHNVRETLAVCERAYIVSQGHLIAHGTPTEILQDEHVKRVYLGEDFRL
# B4: YrdA (protein, UniProt P0A9W9 1-184)
# chain: MSDVLRPYRDLFPQIGQRVMIDDSSVVIGDVRLADDVGIWPLVVIRGDVHYVQIGARTNIQDGSMLHVTHKSSYNPDGNPLTIGEDVTVGHKVMLHGCTIGNRVLVGMGSILLDGAIVEDDVMIGAGSLVPQNKRLESGYLYLGSPVKQIRPLSDEEKAGLRYSANNYVKWKDEYLDQGNQTQP
# B5: putative methyl transferase YfiF (protein, UniProt P0AGJ5 1-345)
# chain: MNDEMKGKSGKVKVMYVRSDDDSDKRTHNPRTGKGGGRPGKSRADGGRRPARDDKQSQPRDRKWEDSPWRTVSRAPGDETPEKADHGGISGKSFIDPEVLRRQRAEETRVYGENACQALFQSRPEAIVRAWFIQSVTPRFKEALRWMAANRKAYHVVDEAELTKASGTEHHGGVCFLIKKRNGTTVQQWVSQAGAQDCVLALENESNPHNLGGMMRSCAHFGVKGVVVQDAALLESGAAIRTAEGGAEHVQPITGDNIVNVLDDFRQAGYTVVTTSSEQGKPLFKTSLPAKMVLVLGQEYEGLPDAARDPNDLRVKIDGTGNVAGLNISVATGVLLGEWWRQNKA
# How the values were obtained:
# Assay in all cases: affinity purification with mass spectrometry; His6-tagged PPI induced with 0.1 mM IPTG in an E. coli T7 express derivative lacking all six PPIs (SR21984); soluble lysate on Ni-NTA beads, 50 mM NaH2PO4, 300 mM NaCl, eluted with a linear imidazole gradient (50-500 mM); co-eluting proteins resolved by SDS-PAGE (for FkpB also 2D gels) and identified by MALDI-TOF
# [1] = molecular target: T1, Hexa-His-tagged FkpB (wild type) (E. coli) (UniProt P0AEM0)
# T1 sequence: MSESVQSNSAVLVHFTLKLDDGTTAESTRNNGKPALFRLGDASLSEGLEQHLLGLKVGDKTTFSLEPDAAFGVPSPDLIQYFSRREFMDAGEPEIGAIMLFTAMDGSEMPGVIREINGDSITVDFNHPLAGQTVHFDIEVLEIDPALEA
# [2] = molecular target: T2, Hexa-His-tagged PpiC (wild type) (E. coli, UniProt P0A9L5 1-93)
# T2 construct: PpiC, parvulin peptidyl-prolyl cis/trans isomerase, E. coli; coding region of the ppiC gene in pET24b; The tag is called cleavable; also called wt PpiC; wild-type PpiC; source: E. coli T7 express derivative lacking all six PPIs (SR21984), IPTG-induced; in lysate on Ni-NTA for co-elution; purified (Ni-NTA) for ITC; not shown: His6, C-terminal, kept
# T2 sequence (looked up): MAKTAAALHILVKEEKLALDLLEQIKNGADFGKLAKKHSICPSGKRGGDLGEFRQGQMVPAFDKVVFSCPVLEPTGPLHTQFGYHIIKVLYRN
# [3] = molecular target: T3, Hexa-His-tagged FkpB E86A (E. coli) (UniProt P0AEM0)
# T3 sequence: T1 sequence with E86A
# [4] = molecular target: T4, Hexa-His-tagged FkpB P128A (E. coli) (UniProt P0AEM0)
# T4 sequence: T1 sequence with P128A
# [5] = molecular target: Hexa-His-tagged FkpB N126A H127A double mutant (E. coli) (UniProt P0AEM0)
# [6] = molecular target: Hexa-His-tagged FkpB N126A (E. coli) (UniProt P0AEM0)
# [7] = molecular target: T5, Hexa-His-tagged FklB (wild type) (E. coli) (UniProt P0A9L3)
# T5 sequence: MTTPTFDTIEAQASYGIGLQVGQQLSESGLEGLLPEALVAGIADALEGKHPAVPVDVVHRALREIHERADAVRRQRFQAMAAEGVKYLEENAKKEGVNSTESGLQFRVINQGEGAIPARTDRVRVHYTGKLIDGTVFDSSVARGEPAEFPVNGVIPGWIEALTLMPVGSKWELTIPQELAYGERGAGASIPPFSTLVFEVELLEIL
# [8] = molecular target: Hexa-His-tagged PpiC M57A (E. coli)
binder,measurement,setting,value
B1,binding,[1],binds
same,binding,[2],binds
same,binding,[3],binds
B2,binding,[4],binds
same,binding,[5],no binding
same,binding,[6],binds
same,binding,[1],binds
same,binding,[3],binds
same,binding,[7],binds
B3,binding,[1],binds
same,binding,[2],binds
same,binding,[3],binds
same,binding,[7],binds
B4,binding,[2],binds
same,binding,[8],no binding
B5,binding,[1],binds
same,binding,[3],binds
